From PMC9150261
No constants are given. Whether binding was seen depends on the method and setting. In cells and extracts the contact can be indirect. Some binding calls cover weakened binding; strength is not graded here.

Molecular target: cyclin-dependent kinase 1 (human (endogenous in U87 and U251)) (UniProt P06493)
Test: co-IP; total protein lysates of U87 or U251 cells; CDK1 or p62 antibody on Protein A/G Plus-Agarose (4°C, 2 h), lysate added at 4°C overnight; detection by western blot

binding: binds
Substance: p62 (from UniProt Q13501 1-440)
